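Viability assay of Plasmodium falciparum sporozoites; the read-out is not stated. The concentration is filed as 10 mM, unlikely as a test dose, so the dose is not known. The record gives no direction; compounds that gave an IC50 in retests scored well above the rest, so higher reads as lower viability. Strong results were mostly tested again. About 34,000 compounds were tested under these conditions; 0.84% (about 280) showed 50% or more at least once.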

The filed quantity is “Percent Effect” (%).
The controls that fix the scale are not given in the record; negative values are as filed.
The compounds are a random part of those screened.
Two or more numbers in one place are separate tests of the same structure; such repeats can differ widely.

For COCCC(=O)N1Cc2nc3c(C)c(-c4cccs4)nn3c(O)c2C1 the result was -0.5073%. Result for COc1ccc2c(c1)OCC(CNC(=O)c1ccncc1)C2 (centres undefined) was 4.262%. Cc1occc1C(=O)N1CCc2ncnc(-c3cnn(C)c3)c2CC1 gave 5.998%. Cc1ccc(CN(Cc2c[nH]cn2)C2CC(C)(C)NC(C)(C)C2)o1.O=C(O)CC(O)(CC(=O)O)C(=O)O gave -10.31%. Cc1nc(C)n(CC2CCCN(Cc3cccc(F)c3F)C2)n1 (centres undefined) gave 19.51%. With CC1CCN(c2ncc3c(n2)CN(c2ccc4c(c2)OCO4)C3=O)CC1 the screen gave -2.399%. Result for Cl.c1cc(CNCc2ccc3c(c2)CCO3)cc(N2CCOCC2)n1 was 0%. COCCSCC(=O)NCc1ccc(N(C)C)cc1 gave 4.035%.

With COc1cc(C)nc(N2CCN(C(=O)CCn3cc(C)cn3)CC2)n1 the screen gave -10.44%. For CC(CO)CN(Cc1ccccc1)Cc1cnc2ccccc2n1 (centres undefined) the result was 33.49% and 37.4%. Result for Cc1nc(-c2ccncc2)ncc1C(C)NC(=O)CN1CCCCC1 (centres undefined) was -6%. CCc1nnc(Nc2cccc(C3CCN(S(=O)(=O)N(C)C)CC3)n2)s1 read 1.895%. O=C(O)[C@@H]1CN(C(=O)CSCC2CC2)C[C@H]1c1ccncc1 gave -15.44%. For CN1CC[C@]2(CN(S(C)(=O)=O)C[C@H]2c2ccccc2)C1=O the result was 18.88%. Result for O=C1CN(C(=O)C2CCCCC2)CC(O)CN1Cc1ccco1 (centres undefined) was -33.79%. COCCC(=O)NCc1ccc(-c2ccccc2C(=O)O)nc1 read 10.78%.

COCCc1noc(CN(C)c2nc(C)nc(C)c2C)n1 gave -24.67% and -14.95%. For Cc1nc(C)n(CC2CCCCN2Cc2ncc(C(C)(C)C)o2)n1 (centres undefined) the result was 13.25%. CCN1CCc2cc(-c3cncn3CC(=O)NC(C)(C)C)ccc21.Cl read 4.768%. Result for CC(NC(=O)CCn1c(=O)oc2ccccc21)c1ccccn1 (centres undefined) was -5.374%. Result for Cc1ccc(-c2nc(CN3CCOC(CN(C)C)C3)co2)cc1 (centres undefined) was 7.335%. Nc1nc(N)c2c(n1)OC1(CCN(C(=O)CC3CCNCC3)CC1)C2 read -5.439%. Result for CN(C)CCOCC1CN(Cc2ccccn2)Cc2nnn(C)c21.O=C(O)C(F)(F)F.O=C(O)C(F)(F)F.O=C(O)C(F)(F)F (centres undefined) was -3.246%. For [H][C@@]12CNC[C@]1([H])[C@H]2CN1CCCn2nc(CNC(=O)N(C)C)cc2C1 the result was 7.807%.

CN1CCOC(CNCc2nc(-c3ccccc3)cs2)C1 (centres undefined) gave 2.22%. Cc1ccc(C2CSCCN2C(=O)c2ccc(C(N)=O)cc2)o1 (centres undefined) gave -13.61%. With Cc1ccc(C(=O)N2CCSCC2)cc1NC(=O)NCCO the screen gave -0.8419%. O=C(O)C1CN(c2cccc(Cl)c2)CCO1 (centres undefined) read 5.89%. For COCCS(=O)(=O)Nc1ccc(-n2cncn2)c(F)c1 the result was 7.574%. Cl.Cl.c1cn(-c2cnc(C3CCNCC3)cn2)cn1 gave 9.956%. For O=C(O)c1ccc(C2CCCN(C(=O)c3ccc[nH]3)C2)cc1 (centres undefined) the result was 3.402%. For COc1cccc2c1OCC(NC(=O)NCc1cccs1)C2 (centres undefined) the result was -3.269%.

O=C(O)C(F)(F)F.O=C1COC2(CCN(Cc3cccs3)CC2)CN1c1ccccc1 read 3.835%. For CN(Cc1ccc(F)cc1)C(=O)NCc1nnc2n1CCC2 the result was 14.33%. Cc1cnn(CC2CN(Cc3nnc(C(C)C)o3)CCO2)c1 (centres undefined) read -15.57%. O=C(O)C(F)(F)F.[H][C@@]12CCN(C(=O)Cc3ccccc3)CC[C@]1(C(=O)N(C)C)CCN2CC read 2.224%. For O=C(O)C(F)(F)F.O=C(O)C(F)(F)F.c1cnc(N2CCOCC3(CCCN(Cc4cccs4)C3)C2)nc1 (centres undefined) the result was 6.959%. With CN(C)C(=O)COC1COC2(CCN(CC3CC3)CC2)C1.O=C(O)C(F)(F)F (centres undefined) the screen gave -9.284%. Result for CC(=O)N1N=C(c2ccco2)OC1C(=O)NCC(C)C (centres undefined) was -17.57%. With c1cnc(N2CCOCC3(CCCN(c4nncs4)C3)C2)cn1 (centres undefined) the screen gave -2.92%.

For Cn1cccc1C(CNC(=O)c1ccc(F)cc1F)N1CCCCCC1 (centres undefined) the result was -42.17% and -31.97% and 0.5587%. With Cc1nsc(NC(=O)N2CCC(C(C)(C)O)CC2)n1 the screen gave -14.99%. For Cn1cc(C(=O)N2CCC(c3cc(CCO)n(C)n3)C2)cn1 (centres undefined) the result was -2.606%. CCN(CC)S(=O)(=O)N1CCCC1c1nnc2n1CCN(C)CC2 (centres undefined) read 9.639%. O=C(CC1CCCC1)N1CCC2(CCN2Cc2ccc(F)cc2)C1.O=C(O)C(F)(F)F (centres undefined) read 2.014%. With COc1nn(C)cc1C(=O)N1CCC(c2nnc(C(C)C)o2)CC1 the screen gave 19.25%. Cc1cncc(C2CCCN(C(=O)c3scnc3C)C2)n1 (centres undefined) read -6.517%. O=C(O)C(F)(F)F.[H][C@@]12CCN(Cc3nccs3)C[C@]1([H])O[C@H](C(=O)N(C)C)C2 gave -0.2286%.

O=C([C@@H]1CCCO1)N1CCN(Cc2ccncc2)c2ncccc2C1 read 8.833%.

Once more, the final 6:

Compound,Percent Effect
CCN(CC)S(=O)(=O)N1CCCC1c1nnc2n1CCN(C)CC2 (centres undefined),9.639%
O=C(CC1CCCC1)N1CCC2(CCN2Cc2ccc(F)cc2)C1.O=C(O)C(F)(F)F (centres undefined),2.014%
COc1nn(C)cc1C(=O)N1CCC(c2nnc(C(C)C)o2)CC1,19.25%
Cc1cncc(C2CCCN(C(=O)c3scnc3C)C2)n1 (centres undefined),-6.517%
O=C(O)C(F)(F)F.[H][C@@]12CCN(Cc3nccs3)C[C@]1([H])O[C@H](C(=O)N(C)C)C2,-0.2286%
O=C([C@@H]1CCCO1)N1CCN(Cc2ccncc2)c2ncccc2C1,8.833%

The values are deposited in ChEMBL (CHEMBL3988442, “University of Dundee, Small-Polar-MMV Screening Library” (2021)).